System: primary AML samples
Assay: HLA class I ligandome analysis (W6/32 immunoaffinity purification, LC-MS/MS) of primary AML samples
Parameters: species or system human
Settings: for Number of positive AMLs: HLA class I ligandome, AML patients (n=15), count for the HLA ligand (LiTAP) or, on protein lines, for the source protein (LiTAA); for Number of positive AMLs [rep. frequency]: representation frequency of the source protein (LiTAA) in AML patients (n=15)

B1: EEF2K (protein, UniProt O00418 2-725, looked up)
Eukaryotic elongation factor …: ADEDLIFRLEGVDGGQSPRAGHDGDSDGDSDDEEGYFICPITDDPSSNQNVNSKVNKYYSNLTKSERYSSSGSPANSFHFKEAWKHAIQKAKHMPDPWAEFHLEDIATERATRHRYNAVTGEWLDDEVLIKMASQPFGRGAMRECFRTKKLSNFLHAQQWKGASNYVAKRYIEPVDRDVYFEDVRLQMEAKLWGEEYNRHKPPKQVDIMQMCIIELKDRPGKPLFHLEHYIEGKYIKYNSNSGFVRDDNIRLTPQAFSHFTFERSGHQLIVVDIQGVGDLYTDPQIHTETGTDFGDGNLGVRGMALFFYSHACNRICESMGLAPFDLSPRERDAVNQNTKLLQSAKTILRGTEEKCGSPQVRTLSGSRPPLLRPLSENSGDENMSDVTFDSLPSSPSSATPHSQKLDHLHWPVFSDLDNMASRDHDHLDNHRESENSGDSGYPSEKRGELDDPEPREHGHSYSNRKYESDEDSLGSSGRVCVEKWNLLNSSRLHLPRASAVALEVQRLNALDLEKKIGKSILGKVHLAMVRYHEGGRFCEKGEEWDQESAVFHLEHAANLGELEAIVGLGLMYSQLPHHILADVSLKETEENKTKGFDYLLKAAEAGDRQSMILVARAFDSGQNLSPDRCQDWLEALHWYNTALEMTDCDEGGEYDGMQDEPRYMMLAREAEMLFTGGYGLEKDPQRSGDLYTQAAEAAMEAMKGRLANQYYQKAEEAWAQMEE
With B1 as the molecule, how does the “Number of positive AMLs” value read?
The value was 3.

What about the “Number of positive AMLs [rep. frequency]” value of the same molecule?
Its value is “[20.0%]”.

B2: TMEM194A (protein, UniProt O14524 44-444, looked up)
Nuclear envelope integral …: ETDVNVVMLQESQVCEKRASQQFCYTNVLIPKWHDIWTRIQIRVNSSRLVRVTQVENEEKLKELEQFSIWNFFSSFLKEKLNDTYVNVGLYSTKTCLKVEIIEKDTKYSVIVIRRFDPKLFLVFLLGLMLFFCGDLLSRSQIFYYSTGMTVGIVASLLIIIFILSKFMPKKSPIYVILVGGWSFSLYLIQLVFKNLQEIWRCYWQYLLSYVLTVGFMSFAVCYKYGPLENERSINLLTWTLQLMGLCFMYSGIQIPHIALAIIIIALCTKNLEHPIQWLYITCRKVCKGAEKPVPPRLLTEEEYRIQGEVETRKALEELREFCNSPDCSAWKTVSRIQSPKRFADFVEGSSHLTPNEVSVHEQEYGLGSIIAQDEIYEEASSEEEDSYSRCPAITQNNFLT
For B2, which “Number of positive AMLs” value is on record?
The value was 3.

What about the “Number of positive AMLs [rep. frequency]” value of the same molecule?
Its value is “[20.0%]”.

B3: CCS (protein, UniProt O14618 1-274, looked up)
Copper chaperone for …: MASDSGNQGTLCTLEFAVQMTCQSCVDAVRKSLQGVAGVQDVEVHLEDQMVLVHTTLPSQEVQALLEGTGRQAVLKGMGSGQLQNLGAAVAILGGPGTVQGVVRFLQLTPERCLIEGTIDGLEPGLHGLHVHQYGDLTNNCNSCGNHFNPDGASHGGPQDSDRHRGDLGNVRADADGRAIFRMEDEQLKVWDVIGRSLIIDEGEDDLGRGGHPLSKITGNSGERLACGIIARSAGLFQNPKQICSCDGLTIWEERGRPIAGKGRKESAQPPAHL
How did the “Number of positive AMLs” value turn out when B3 was run?
The value was 3.

What about the “Number of positive AMLs [rep. frequency]” value of the same molecule?
The value was “[20.0%]”.

B4: CPQ (protein, UniProt Q9Y646 45-472, looked up)
Carboxypeptidase Q: DVAKAIINLAVYGKAQNRSYERLALLVDTVGPRLSGSKNLEKAIQIMYQNLQQDGLEKVHLEPVRIPHWERGEESAVMLEPRIHKIAILGLGSSIGTPPEGITAEVLVVTSFDELQRRASEARGKIVVYNQPYINYSRTVQYRTQGAVEAAKVGALASLIRSVASFSIYSPHTGIQEYQDGVPKIPTACITVEDAEMMSRMASHGIKIVIQLKMGAKTYPDTDSFNTVAEITGSKYPEQVVLVSGHLDSWDVGQGAMDDGGGAFISWEALSLIKDLGLRPKRTLRLVLWTAEEQGGVGAFQYYQLHKVNISNYSLVMESDAGTFLPTGLQFTGSEKARAIMEEVMSLLQPLNITQVLSHGEGTDINFWIQAGVPGASLLDDLYKYFFFHHSHGDTMTVMDPKQMNVAAAVWAVVSYVVADMEEMLPRS
B4 was tested. Which “Number of positive AMLs” value did it give?
Its value is 6.

And the “Number of positive AMLs [rep. frequency]” value?
The value was “[40.0%]”.

B5: LYRM1 (protein, UniProt O43325 1-122, looked up)
LYR motif-containing protein 1: MTTATRQEVLGLYRSIFRLARKWQATSGQMEDTIKEKQYILNEARTLFRKNKNLTDTDLIKQCIDECTARIEIGLHYKIPYPRPIHLPPMGLTPLRGRGLRSQEKLRKLSKPVYLRSHDEVS
For B5, which “Number of positive AMLs” value is on record?
The value was 3.

And the “Number of positive AMLs [rep. frequency]” value?
Its value is “[20.0%]”.

B6: TIPRL (protein, UniProt O75663 1-272, looked up)
TIP41-like protein: MMIHGFQSSHRDFCFGPWKLTASKTHIMKSADVEKLADELHMPSLPEMMFGDNVLRIQHGSGFGIEFNATDALRCVNNYQGMLKVACAEEWQESRTEGEHSKEVIKPYDWTYTTDYKGTLLGESLKLKVVPTTDHIDTEKLKAREQIKFFEEVLLFEDELHDHGVSSLSVKIRVMPSSFFLLLRFFLRIDGVLIRMNDTRLYHEADKTYMLREYTSRESKISSLMHVPPSLFTEPNEISQYLPIKEAVCEKLIFPERIDPNPADSQKSTQVE
What does the source list for B6?
Number of positive AMLs: 3; Number of positive AMLs [rep. frequency]: [20.0%]

B7: RPS6KA4 (protein, UniProt O75676 1-772, looked up)
Ribosomal protein S6 kinase …: MGDEDDDESCAVELRITEANLTGHEEKVSVENFELLKVLGTGAYGKVFLVRKAGGHDAGKLYAMKVLRKAALVQRAKTQEHTRTERSVLELVRQAPFLVTLHYAFQTDAKLHLILDYVSGGEMFTHLYQRQYFKEAEVRVYGGEIVLALEHLHKLGIIYRDLKLENVLLDSEGHIVLTDFGLSKEFLTEEKERTFSFCGTIEYMAPEIIRSKTGHGKAVDWWSLGILLFELLTGASPFTLEGERNTQAEVSRRILKCSPPFPPRIGPVAQDLLQRLLCKDPKKRLGAGPQGAQEVRNHPFFQGLDWVALAARKIPAPFRPQIRSELDVGNFAEEFTRLEPVYSPPGSPPPGDPRIFQGYSFVAPSILFDHNNAVMTDGLEAPGAGDRPGRAAVARSAMMQDSPFFQQYELDLREPALGQGSFSVCRRCRQRQSGQEFAVKILSRRLEANTQREVAALRLCQSHPNVVNLHEVHHDQLHTYLVLELLRGGELLEHIRKKRHFSESEASQILRSLVSAVSFMHEEAGVVHRDLKPENILYADDTPGAPVKIIDFGFARLRPQSPGVPMQTPCFTLQYAAPELLAQQGYDESCDLWSLGVILYMMLSGQVPFQGASGQGGQSQAAEIMCKIREGRFSLDGEAWQGVSEEAKELVRGLLTVDPAKRLKLEGLRGSSWLQDGSARSSPPLRTPDVLESSGPAVRSGLNATFMAFNRGKREGFFLKSVENAPLAKRRKQKLRSATASRRGSPAPANPGRAPVASKGAPRRANGPLPPS
For B7, which “Number of positive AMLs” value is on record?
Its value is 3.

And the “Number of positive AMLs [rep. frequency]” value?
Its value is “[20.0%]”.

B8: RCBTB2 (protein, UniProt O95199 1-551, looked up)
RCC1 and BTB …: MEEELPLFSGDSGKPVQATLSSLKMLDVGKWPIFSLCSEEELQLIRQACVFGSAGNEVLYTTVNDEIFVLGTNCCGCLGLGDVQSTIEPRRLDSLNGKKIACLSYGSGPHIVLATTEGEVFTWGHNAYSQLGNGTTNHGLVPCHISTNLSNKQVIEVACGSYHSLVLTSDGEVFAWGYNNSGQVGSGSTVNQPIPRRVTGCLQNKVVVTIACGQMCCMAVVDTGEVYVWGYNGNGQLGLGNSGNQPTPCRVAALQGIRVQRVACGYAHTLVLTDEGQVYAWGANSYGQLGTGNKSNQSYPTPVTVEKDRIIEIAACHSTHTSAAKTQGGHVYMWGQCRGQSVILPHLTHFSCTDDVFACFATPAVTWRLLSVEPDDHLTVAESLKREFDNPDTADLKFLVDGKYIYAHKVLLKIRCEHFRSSLEDNEDDIVEMSEFSYPVYRAFLEYLYTDSISLSPEEAVGLLDLATFYRENRLKKLCQQTIKQGICEENAIALLSAAVKYDAQDLEEFCFRFCINHLTVVTQTSGFAEMDHDLLKNFISKASRVGAFKN
Which results are given for B8?
Number of positive AMLs: 3; Number of positive AMLs [rep. frequency]: [20.0%]

B9: PAK4 (protein, UniProt O96013 1-591, looked up)
Serine/threonine-protein …: MFGKRKKRVEISAPSNFEHRVHTGFDQHEQKFTGLPRQWQSLIEESARRPKPLVDPACITSIQPGAPKTIVRGSKGAKDGALTLLLDEFENMSVTRSNSLRRDSPPPPARARQENGMPEEPATTARGGPGKAGSRGRFAGHSEAGGGSGDRRRAGPEKRPKSSREGSGGPQESSRDKRPLSGPDVGTPQPAGLASGAKLAAGRPFNTYPRADTDHPSRGAQGEPHDVAPNGPSAGGLAIPQSSSSSSRPPTRARGAPSPGVLGPHASEPQLAPPACTPAAPAVPGPPGPRSPQREPQRVSHEQFRAALQLVVDPGDPRSYLDNFIKIGEGSTGIVCIATVRSSGKLVAVKKMDLRKQQRRELLFNEVVIMRDYQHENVVEMYNSYLVGDELWVVMEFLEGGALTDIVTHTRMNEEQIAAVCLAVLQALSVLHAQGVIHRDIKSDSILLTHDGRVKLSDFGFCAQVSKEVPRRKSLVGTPYWMAPELISRLPYGPEVDIWSLGIMVIEMVDGEPPYFNEPPLKAMKMIRDNLPPRLKNLHKVSPSLKGFLDRLLVRDPAQRATAAELLKHPFLAKAGPPASIVPLMRQNRTR
With B9 as the molecule, how does the “Number of positive AMLs” value read?
The value was 3.

What about the “Number of positive AMLs [rep. frequency]” value of the same molecule?
The value was “[20.0%]”.

B10: ATP5L (protein, UniProt O75964 2-103, looked up)
ATP synthase F(0) complex …: AQFVRNLVEKTPALVNAAVTYSKPRLATFWYYAKVELVPPTPAEIPRAIQSLKKIVNSAQTGSFKQLTVKEAVLNGLVATEVLMWFYVGEIIGKRGIIGYDV
With B10 as the molecule, how does the “Number of positive AMLs” value read?
Its value is 5.

And the “Number of positive AMLs [rep. frequency]” value?
The value was “[33.3%]”.

B11: CPA3 (protein, UniProt P15088 110-417, looked up)
Mast cell carboxypeptidase A: IPGRHSYAKYNNWEKIVAWTEKMMDKYPEMVSRIKIGSTVEDNPLYVLKIGEKNERRKAIFTDCGIHAREWVSPAFCQWFVYQATKTYGRNKIMTKLLDRMNFYILPVFNVDGYIWSWTKNRMWRKNRSKNQNSKCIGTDLNRNFNASWNSIPNTNDPCADNYRGSAPESEKETKAVTNFIRSHLNEIKVYITFHSYSQMLLFPYGYTSKLPPNHEDLAKVAKIGTDVLSTRYETRYIYGPIESTIYPISGSSLDWAYDLGIKHTFAFELRDKGKFGFLLPESRIKPTCRETMLAVKFIAKYILKHTS
Which “Number of positive AMLs” value does the source give for B11 here?
Its value is 3.

And the “Number of positive AMLs [rep. frequency]” value?
Its value is “[20.0%]”.

B12: AZU1 (protein, UniProt P20160 27-248, looked up)
Azurocidin: IVGGRKARPRQFPFLASIQNQGRHFCGGALIHARFVMTAASCFQSQNPGVSTVVLGAYDLRRRERQSRQTFSISSMSENGYDPQQNLNDLMLLQLDREANLTSSVTILPLPLQNATVEAGTRCQVAGWGSQRSGGRLSRFPRFVNVTVTPEDQCRPNNVCTGVLTRRGGICNGDGGTPLVCEGLAHGVASFSLGPCGRGPDFFTRVALFRDWIDGVLNNPGP
Which “Number of positive AMLs” value does the source give for B12 here?
The value was 3.

And the “Number of positive AMLs [rep. frequency]” value?
Its value is “[20.0%]”.
